In PubChem BioAssay AID2685 (National Center for Advancing Translational Sciences (NCATS), 2010):
This is one part of the list. The main result of the screen is listed elsewhere. These columns were measured beside it and carry no call. Compounds called inactive in the main read-out are mostly missing here. The note in brackets gives the kind of curve behind each potency; many fits are weak.

Experiment: qHTS Assay for Lipid Storage Modulators in Drosophila S3 Cells;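 on cell number change: cells counted by Cell Tracker Red CMTPX staining in the red channel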
Conditions: BODIPY lipid droplet fluorescence, 18-24 h; for cell number change: measured here: cell count max response, cells fed with added oleic acid
Summary of the method: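 Laser-scanning cytometry quantifies lipid droplet accumulation (500–530 nm total intensity; droplet/cell object ratio) in oleic acid-fed (400 uM added) Drosophila S3 cells treated with a concentration series. 20 uM Triacsin C defined 100% inhibition.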

[1] = measured here: lipid fluorescence (Fed channel) AC50, cells fed with added oleic acid
[2] = measured here: cell number channel AC50, cells fed with added oleic acid

| Structure (SMILES) | cell number change [%] | AC50 [1] | AC50 [2] |
| --- | --- | --- | --- |
| CC1CCN(c2ccc([N+](=O)[O-])cc2C(=O)NCC2CCCO2)CC1 (stereo not given) | -26.3 | – | – |
| CCOC(=O)CSc1nc(C)c(Oc2ccc(Cl)cc2Cl)c(=O)[nH]1 | -10.7 | 3260 nM [falling, full curve] | – |
| CCOc1ccc(C(=O)NC2CCN(C(=O)Nc3ccccc3OC)CC2)cc1 | -49 | 20600 nM [falling, partial curve] | 23100 nM [falling, partial curve] |
| COc1ccc2c(C)cc(C)nc2n1 | 13.3 | 1300 nM [rising, full curve, poor fit] | – |
| COc1ccc(C)cc1NC(=O)CN(C)C1CCCCC1 | – | 130 nM [rising, full curve, poor fit] | – |
| C=CCN1C(=O)/C(=C\C=C2\N(C)c3ccccc3C2(C)C)SC1=S | -30.9 | 1300 nM [falling, full curve] | 920 nM [falling, full curve] |
| COCCn1nnnc1C(c1cccc(C#N)c1)N1CCCCCC1 (stereo not given) | 0.352 | – | – |
| CCn1c(CNC(=O)c2ccccc2F)nnc1SCC(=O)Nc1nncs1 | 2.56 | 2310 nM [falling, full curve] | – |
| NC(=O)c1ccc2nc(NC(=O)c3ccc(N)cc3)sc2c1 | 44.4 | 29100 nM [rising, single point] | 29100 nM [rising, single point] |
| CCOC(=O)c1ccc(NC(=O)CCCN2C(=O)NC3(CCCC3)C2=O)cc1 | 43.7 | 7310 nM [rising, partial curve] | 3260 nM [rising, partial curve] |
| Cc1cnc(NC(=O)CSc2ccc(Cl)cc2)s1 | 61.1 | – | 7310 nM [rising, partial curve] |
| CCCCCC(=O)N/N=C(\C)c1ccc(NC(=O)c2ccco2)cc1 | 26.3 | – | – |
| Cc1cc(C)n2c(SCC(=O)NC3CCCCC3C)nnc2n1 (stereo not given) | 61.2 | – | 5.8 nM [rising, full curve, poor fit] |
| Cc1noc(C)c1COc1cccc(C(=O)Nc2ccc(OCc3ccccc3)cc2)c1 | -106 | – | 16400 nM [falling, partial curve] |
| CC(CC(=O)OCC(=O)Nc1ccc2[nH]c(=O)[nH]c2c1)c1ccccc1 (stereo not given) | -13.7 | 29100 nM [rising, partial curve, poor fit] | – |
| Fc1ccccc1OCCCN1CCOCC1 | -44.8 | 6510 nM [falling, single point] | 1030 nM [falling, partial curve] |
| COc1cccc2c(Nc3ccccc3C)cc(C)nc12 | -24.1 | 29100 nM [falling, single point] | – |
| Cn1nc(C(F)(F)F)c2cc(C(=O)Nc3ccc(Cl)cc3)sc21 | -16.2 | – | 32.6 nM [rising, full curve, poor fit] |
| Cc1ccccc1NC(=O)CC1c2ccccc2CC(C)(C)N1C (stereo not given) | -21.9 | 920 nM [falling, full curve] | – |
| CC(C)Nc1nc(NC(C)C)nc(OCCOC(=O)Nc2ccccc2)n1 | 16.3 | 2310 nM [rising, partial curve] | – |

Pulled by compound from above (4):

| Structure (SMILES) | cell number change [%] | AC50 [1] | AC50 [2] |
| --- | --- | --- | --- |
| Fc1ccccc1OCCCN1CCOCC1 | -44.8 | 6510 nM [falling, single point] | 1030 nM [falling, partial curve] |
| CCn1c(CNC(=O)c2ccccc2F)nnc1SCC(=O)Nc1nncs1 | 2.56 | 2310 nM [falling, full curve] | – |
| NC(=O)c1ccc2nc(NC(=O)c3ccc(N)cc3)sc2c1 | 44.4 | 29100 nM [rising, single point] | 29100 nM [rising, single point] |
| CC(CC(=O)OCC(=O)Nc1ccc2[nH]c(=O)[nH]c2c1)c1ccccc1 (stereo not given) | -13.7 | 29100 nM [rising, partial curve, poor fit] | – |

Continuation:

| Structure (SMILES) | cell number change [%] | AC50 [1] | AC50 [2] |
| --- | --- | --- | --- |
| Oc1ccc(-c2[nH]ncc2-c2cnn(-c3ccccc3)c2)c(O)c1 | 37.3 | 411 nM [falling, single point] | 6510 nM [rising, full curve, poor fit] |
| Cc1ccc(-c2nn(-c3ccccc3)cc2C(=O)NCCCN2CCOCC2)cc1 | -19.9 | – | 820 nM [falling, partial curve, poor fit] |
| Oc1ccc(Cl)cc1C=Nc1ccccc1Br | -13.2 | 2590 nM [rising, partial curve, poor fit] | 2060 nM [rising, partial curve, poor fit] |
| Cc1c(NC(=O)CSc2ccc3ccccc3n2)c(=O)n(-c2ccccc2)n1C | -4.79 | – | – |
| Cc1nn2c(-c3cccc(NC(=O)CSc4nc5ccccc5o4)c3)nnc2c2ccccc12 | -106 | – | – |
| COc1ccccc1C(=O)COC(=O)c1c(-c2ccccc2)noc1C | 13.2 | 116 nM [rising, full curve, poor fit] | 146 nM [rising, full curve, poor fit] |
| COc1ccccc1CC(=O)N1CCN(S(=O)(=O)c2cccs2)CC1 | 28.6 | 6510 nM [rising, single point] | 291 nM [rising, full curve, poor fit] |
| Cc1ccc2occ(/C=N/NC(=O)c3ccccc3C)c(=O)c2c1 | 1.88 | – | – |
| CN(c1ccc(Cl)cc1)c1cc(=O)n(C)c2ccccc12 | -18.2 | – | – |
| O=c1cc(NCc2ccccc2)nc2ccccn12 | 138 | 130 nM [rising, single point] | 164 nM [rising, full curve, poor fit] |
| COc1cccc(NC(=O)COc2ccccc2C(N)=O)c1 | 144 | 14600 nM [rising, partial curve] | 20600 nM [rising, partial curve] |
| COc1ccc(S(=O)(=O)N2CCC(Nc3ccccc3Cl)CC2)cc1 | -0.289 | 103 nM [falling, full curve, poor fit] | – |
| CCn1nc(NS(=O)(=O)c2ccccc2)c2cc3ccccc3nc21 | -14.7 | 580 nM [falling, single point] | – |
| Cc1ccc(Nc2nnc(SCC(=O)NCCN3C(=O)CSC3=O)s2)cc1C | -19.9 | 10300 nM [falling, partial curve] | – |
| Cc1ccnc(NC(=O)COc2ccccc2[N+](=O)[O-])c1 | 22 | 731 nM [falling, single point] | 920 nM [falling, full curve, poor fit] |
| CCC(C)NC(=O)CC(c1ccccc1)c1cc(C)ccc1O (stereo not given) | 9.93 | 6510 nM [falling, partial curve, poor fit] | – |
| O=C1CCN(CCc2ccccc2)CCN1[C@H](CSc1ccccc1)c1ccccc1 | 4.19 | – | – |
| O=C1c2ccccc2C(=O)N1CCc1csc(-c2cccc(Cl)c2)n1 | – | 2060 nM [rising, partial curve] | 2590 nM [rising, partial curve] |
| Cc1ccc(S(=O)(=O)N2CCN(CC(=O)NC(C)c3ccccc3)CC2)cc1 (stereo not given) | 1.57 | – | – |
| Cc1nc2c(C(=O)Nc3ccc(N4CCCC(O)C4)cc3)snc2c(=O)[nH]1 (stereo not given) | -22.9 | 1460 nM [falling, partial curve] | – |

| Structure (SMILES) | cell number change [%] | AC50 [1] | AC50 [2] |
| --- | --- | --- | --- |
| O=C(CSc1nc2ccccc2o1)N1c2ccccc2Sc2ccccc21 | 0.427 | 580 nM [rising, partial curve, poor fit] | – |
| O=C(CSc1nnnn1C1CCCCC1)NCCc1ccccc1 | 12.6 | 259 nM [falling, full curve, poor fit] | – |
| Cc1ccc(C(=O)N/C(=C/c2ccc(N(C)C)cc2)C(=O)NCC2CCCO2)cc1 (stereo not given) | -7.5 | 9200 nM [rising, single point] | – |
| CC1CCN(S(=O)(=O)c2ccc3nc(-c4ccccn4)cc(C(=O)NCCN(C)Cc4ccccc4)c3c2)CC1 | 26.6 | – | – |
| CC(=O)N1CCN(c2ccc(NC(=O)c3ccc(C)cc3)cc2)CC1 | -2.6 | – | – |
| COc1ccc(S(=O)(=O)Nc2nc3ccccc3s2)cc1OC | 58.1 | – | 20600 nM [rising, single point] |
| Cc1ccc2nc(SCC(=O)N3CCCC3)nc(=O)n2c1 | -75.9 | – | 20600 nM [falling, partial curve, poor fit] |
| Cc1cc(NC(c2cccnc2)c2ccc3cccnc3c2O)no1 (stereo not given) | 0.0646 | 920 nM [rising, partial curve] | – |
| CC(=O)Nc1ccc(OCc2nnc(-c3ccc(Cl)cc3)o2)cc1 | – | – | 103 nM [rising, single point] |
| CC(=O)NC(CC(=O)OCC(=O)N1c2ccccc2NC(=O)C1(C)C)c1ccccc1 (stereo not given) | -13.3 | – | – |
| CCOc1ccc2nc(N3CCCN(C(=O)Nc4ccccc4C)CC3)c(C#N)cc2c1 | 254 | 580 nM [rising, full curve] | 1160 nM [rising, partial curve] |
| CCCC1=C(C(=O)OCC)C(c2ccc(NC(C)=O)cc2)NC(=O)N1 (stereo not given) | 1.56 | – | – |
| Cc1ccc(CNC(=O)c2cc3c(=O)n4ccccc4nc3n(CC3CCCO3)c2=N)cc1 (stereo not given) | 223 | 580 nM [rising, single point] | 461 nM [rising, partial curve, poor fit] |
| Nc1cnccc1C(=O)O | – | 29100 nM [rising, single point] | – |
| Cc1cccc(C(=O)NCC(=O)Nc2ccncc2)c1 | 25.2 | 29100 nM [rising, single point] | – |
| CC(C)CN(CC(C)C)C(=O)Cc1coc2ccc3ccccc3c12 | 31.7 | 6510 nM [rising, partial curve] | 7310 nM [rising, partial curve, poor fit] |
| COCCCNC(=O)c1c(N)n(/N=C/c2cccnc2)c2nc3ccccc3nc12 | 3.57 | 92 nM [rising, full curve, poor fit] | – |
| COc1ccc(NC(=O)CN(C)C(=O)C(CCSC)NC(=O)c2ccccc2)cc1 (stereo not given) | -12.5 | – | 6510 nM [falling, single point] |
| Cc1cc(C)n(C(=O)CCN2C(=O)c3ccccc3C2=O)n1 | 12.6 | 2060 nM [rising, partial curve] | – |
| O=C(N=C1SC2CS(=O)(=O)CC2N1Cc1ccccc1Cl)C1CC1 (stereo not given) | -17.9 | 29100 nM [rising, single point] | 4110 nM [rising, single point] |
